For three substances, binding results are on record in publication doi:10.1101/2020.07.04.184861.

Amino acid sequences for entries named in this document (tags omitted).
UniProt P38919: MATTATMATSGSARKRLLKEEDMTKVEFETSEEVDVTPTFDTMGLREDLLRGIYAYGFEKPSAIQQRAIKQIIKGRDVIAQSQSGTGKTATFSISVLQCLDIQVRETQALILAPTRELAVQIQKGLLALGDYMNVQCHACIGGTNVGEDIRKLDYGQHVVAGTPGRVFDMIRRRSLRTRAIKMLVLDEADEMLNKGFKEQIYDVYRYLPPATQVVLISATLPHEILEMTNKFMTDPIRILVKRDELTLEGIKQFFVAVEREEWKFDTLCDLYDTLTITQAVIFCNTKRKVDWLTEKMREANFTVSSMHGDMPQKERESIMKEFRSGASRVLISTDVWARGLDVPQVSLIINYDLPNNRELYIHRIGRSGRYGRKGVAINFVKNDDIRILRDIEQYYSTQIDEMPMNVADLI
UniProt P61326: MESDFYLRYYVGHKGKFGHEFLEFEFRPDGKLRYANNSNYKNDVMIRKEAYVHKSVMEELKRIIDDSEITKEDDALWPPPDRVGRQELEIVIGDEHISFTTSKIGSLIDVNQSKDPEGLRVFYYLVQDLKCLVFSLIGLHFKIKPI
UniProt Q13838: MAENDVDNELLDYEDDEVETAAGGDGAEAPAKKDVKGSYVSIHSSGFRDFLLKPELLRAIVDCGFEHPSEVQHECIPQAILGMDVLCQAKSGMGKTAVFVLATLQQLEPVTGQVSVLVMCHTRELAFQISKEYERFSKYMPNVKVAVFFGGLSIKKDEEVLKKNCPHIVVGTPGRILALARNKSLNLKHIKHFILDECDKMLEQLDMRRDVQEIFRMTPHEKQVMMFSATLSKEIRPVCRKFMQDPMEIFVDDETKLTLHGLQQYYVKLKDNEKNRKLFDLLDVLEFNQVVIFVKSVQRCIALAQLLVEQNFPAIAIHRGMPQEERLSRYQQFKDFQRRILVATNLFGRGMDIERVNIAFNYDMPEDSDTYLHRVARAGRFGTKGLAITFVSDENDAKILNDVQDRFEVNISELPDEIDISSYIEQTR

No constants are given. Whether binding was seen depends on the method and setting. In cells and extracts the contact can be indirect. Some entries that bind do so weakly or less than the wild type. Where a sequence is shown, tags or fusion partners need not be part of it.

For assay [1], the target named is T1, LAP-tagged NCBP2 (Nuclear Cap Binding Protein 2) (UniProt P52298).
T1 sequence: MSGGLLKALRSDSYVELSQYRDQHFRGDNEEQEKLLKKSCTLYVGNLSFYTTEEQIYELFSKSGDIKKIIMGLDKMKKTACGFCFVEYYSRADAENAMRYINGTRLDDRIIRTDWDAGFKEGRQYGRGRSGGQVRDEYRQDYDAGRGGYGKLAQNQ
The experiment in a line: co-IP.

Assay [2] deals with T2, LAP-tagged NCBP3 (C17orf85) (UniProt Q53F19).
T2 sequence: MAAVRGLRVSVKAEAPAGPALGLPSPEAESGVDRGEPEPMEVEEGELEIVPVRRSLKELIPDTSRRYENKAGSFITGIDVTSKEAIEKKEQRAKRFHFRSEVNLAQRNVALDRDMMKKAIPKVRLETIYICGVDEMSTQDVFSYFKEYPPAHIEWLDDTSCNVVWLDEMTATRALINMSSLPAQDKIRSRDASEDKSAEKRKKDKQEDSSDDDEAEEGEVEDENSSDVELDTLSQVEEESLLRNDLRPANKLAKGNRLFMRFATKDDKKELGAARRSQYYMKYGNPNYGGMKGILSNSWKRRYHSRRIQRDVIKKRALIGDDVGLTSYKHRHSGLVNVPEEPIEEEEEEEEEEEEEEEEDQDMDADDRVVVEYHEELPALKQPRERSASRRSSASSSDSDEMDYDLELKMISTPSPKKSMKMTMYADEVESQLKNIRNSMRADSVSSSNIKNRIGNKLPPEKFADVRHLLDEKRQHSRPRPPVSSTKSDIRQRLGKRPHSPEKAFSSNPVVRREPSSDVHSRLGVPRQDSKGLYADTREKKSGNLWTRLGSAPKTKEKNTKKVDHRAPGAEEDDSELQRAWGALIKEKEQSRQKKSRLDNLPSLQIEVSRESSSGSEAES
The experiment in a line: co-IP.

In the case of “EIF4A3, endogenous (from UniProt P38919 1-411)”, in assay [1], the binding entry is listed as “binds”.
Regarding “MAGOH, endogenous (from UniProt P61326 1-146)”, the binding entry in assay [1] is “binds”.
With “DDX39B, endogenous (from UniProt Q13838 1-428)”, the binding result in assay [1] and in assay [2] was “binds” throughout.
